Binding data for three molecules are collected here from patent CN113234157A.

Numbering of substitutions follows the chain as printed. Results are given in words; binding and its absence hold for the method and conditions named. Some results given as binding are weak or reduced against the parent protein; the word gives no strength.

For the assay, the target named is T1, 人IL33蛋白 (human) (UniProt O95760).
T1 sequence (looked up): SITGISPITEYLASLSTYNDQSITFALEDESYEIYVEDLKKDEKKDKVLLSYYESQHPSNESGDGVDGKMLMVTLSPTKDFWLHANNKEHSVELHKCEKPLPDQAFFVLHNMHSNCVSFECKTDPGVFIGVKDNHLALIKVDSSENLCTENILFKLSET
The assay is described as follows: affinity for IL-33; method not detailed.

B1: 人源化抗人IL-33单克隆抗体D02-3P1hz31 (antibody, V domains shown)
VH: EVQLVESGGGLVQPGGSLRLSCAASGFTFSSYYMSWVRQAPGKGLELVSAISSSGGSTYYPDTVKGRFTISRDNSKNTLYLQMGSLRAEDMAVYYCARHSYGNWYFDVWGQGTTVTVSS
VL: EIVLTQSPATLSLSPGERATLSCRASESVDNYGISFMNWFQQKPGQAPRLLIYAASNQGSGIPARFSGSGSGTDFTLTISSLEPEDTAVYFCQQSKEVPWTFGQGTKVEIK
Turning to B1, the binding entry is “binds”.

B2: 人源化抗人IL-33单克隆抗体E01-14O9hz10 (antibody, V domains shown)
VH: EVQLVESGGGLVQPGGSLRLSCATSGFTFTDYYMNWVRQAPGKGLEWVGFIRNKVNGYTTEYSASVKGRFTISRDNSKSILYLQMNSLRAEDTAVYYCARPYYGNYGWFPYWGQGTLVTVSS
VL: B1 VL with F40Y, T87F, F91Y, W100Y, Q104G
On to B2, for which the binding entry is “binds”.

B3: 人源化抗人IL-33单克隆抗体H02-8F11hz01 (antibody, V domains shown)
VH: EVQLVQSGAEVKKPGASVKVSCKASGYTFTNYWIQWVRQAPGQGLEWMGEIFPGTGTSYYSEKFKGRVTMTTDTSTSTAYMELRSLRSDDTAVYYCARKHRGYGYGGAWIAYWGQGTLVTVSS
VL: DIQLTQSPSSVSASVGDRVTITCSATSSVSSMHWHQQKPGKAPKLLIYRTSNLASGVPSRFSGSGSGTDYTLTISSLQPEDFATYYCHQWSSYPTFGGGTKVEIK
Take B3: the binding result is recorded as “binds”.
